According to publication PMC8102522:
These are yes or no findings as the source states them, for the method shown. In cells and extracts the contact can be indirect. Some results given as binding are weak or reduced against the parent protein; the word gives no strength.

Chains of the proteins cited; added tags and fusions are not shown. Residues count along the entry.
UniProt O00206, residues 24-839: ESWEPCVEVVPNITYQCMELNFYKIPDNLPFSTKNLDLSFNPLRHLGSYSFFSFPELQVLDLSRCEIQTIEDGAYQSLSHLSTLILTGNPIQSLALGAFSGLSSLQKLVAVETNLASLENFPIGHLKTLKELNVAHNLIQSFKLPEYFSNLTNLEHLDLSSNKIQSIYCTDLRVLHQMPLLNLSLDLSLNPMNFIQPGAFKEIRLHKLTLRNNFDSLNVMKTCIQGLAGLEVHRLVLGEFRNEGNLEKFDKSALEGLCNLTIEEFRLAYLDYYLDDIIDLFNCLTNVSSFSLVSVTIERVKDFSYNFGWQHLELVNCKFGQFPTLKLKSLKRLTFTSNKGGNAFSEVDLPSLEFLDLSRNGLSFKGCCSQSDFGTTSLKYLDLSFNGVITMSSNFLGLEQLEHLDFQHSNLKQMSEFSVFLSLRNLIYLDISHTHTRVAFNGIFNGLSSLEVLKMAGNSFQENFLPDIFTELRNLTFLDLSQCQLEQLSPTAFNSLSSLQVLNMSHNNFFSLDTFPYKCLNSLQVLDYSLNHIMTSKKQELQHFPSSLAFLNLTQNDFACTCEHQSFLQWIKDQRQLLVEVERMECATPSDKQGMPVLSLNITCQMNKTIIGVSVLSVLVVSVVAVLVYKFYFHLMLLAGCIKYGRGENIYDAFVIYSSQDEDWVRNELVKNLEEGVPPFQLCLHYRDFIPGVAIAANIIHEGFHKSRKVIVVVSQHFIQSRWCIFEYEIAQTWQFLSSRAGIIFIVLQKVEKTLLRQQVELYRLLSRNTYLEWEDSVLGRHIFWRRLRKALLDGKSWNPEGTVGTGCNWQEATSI
UniProt Q99836: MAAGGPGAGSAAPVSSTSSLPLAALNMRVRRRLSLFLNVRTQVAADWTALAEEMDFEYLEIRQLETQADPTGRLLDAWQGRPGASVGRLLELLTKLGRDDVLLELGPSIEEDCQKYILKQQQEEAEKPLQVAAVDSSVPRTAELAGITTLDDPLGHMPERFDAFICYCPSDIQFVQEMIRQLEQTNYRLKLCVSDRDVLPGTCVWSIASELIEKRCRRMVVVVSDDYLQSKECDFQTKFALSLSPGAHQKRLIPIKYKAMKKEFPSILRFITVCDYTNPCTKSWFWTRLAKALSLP

T1: myeloid differentiation protein 2 (human (endogenous in MIO-M1)) (UniProt Q9Y6Y9)
T1 sequence: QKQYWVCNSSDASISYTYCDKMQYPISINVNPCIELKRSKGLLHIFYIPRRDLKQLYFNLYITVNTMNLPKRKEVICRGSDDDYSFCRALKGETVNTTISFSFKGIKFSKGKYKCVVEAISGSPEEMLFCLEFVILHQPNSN

B1: NADPH oxidase-4 (enzyme, UniProt Q9NPH5 1-578)
chain: MAVSWRSWLANEGVKHLCLFIWLSMNVLLFWKTFLLYNQGPEYHYLHQMLGLGLCLSRASASVLNLNCSLILLPMCRTLLAYLRGSQKVPSRRTRRLLDKSRTFHITCGVTICIFSGVHVAAHLVNALNFSVNYSEDFVELNAARYRDEDPRKLLFTTVPGLTGVCMVVVLFLMITASTYAIRVSNYDIFWYTHNLFFVFYMLLTLHVSGGLLKYQTNLDTHPPGCISLNRTSSQNISLPEYFSEHFHEPFPEGFSKPAEFTQHKFVKICMEEPRFQANFPQTWLWISGPLCLYCAERLYRYIRSNKPVTIISVMSHPSDVMEIRMVKENFKARPGQYITLHCPSVSALENHPFTLTMCPTETKATFGVHLKIVGDWTERFRDLLLPPSSQDSEILPFIQSRNYPKLYIDGPFGSPFEESLNYEVSLCVAGGIGVTPFASILNTLLDDWKPYKLRRLYFIWVCRDIQSFRWFADLLCMLHNKFWQENRPDYVNIQLYLSQTDGIQKIIGEKYHALNSRLFIGRPRWKLLFDEIAKYNRGKTVGVFCCGPNSLSKTLHKLSNQNNSYGTRFEYNKESFS
B2: myeloid differentiation protein 2 (protein, UniProt Q9Y6Y9 19-160)
chain: T1 sequence

Columns and labels:
[1] = biological target: T1, myeloid differentiation protein 2 (human (endogenous in MIO-M1)); assay: co-IP; MIO-M1 cells exposed to HOG-LDL for 15 min; extracts incubated with MD2 antibody overnight at 4 °C, protein G-Sepharose beads 2 h at 4 °C, immunoblot of coprecipitated proteins; also after siNOX4 or negative control siRNA and with or without apocynin (Fig. 4a, 5b)
[2] = biological target: Toll-like receptor 4 (human (endogenous in MIO-M1)) (UniProt O00206); assay: co-IP; MIO-M1 cells exposed to HOG-LDL for 15 min; extracts incubated with TLR4 antibody overnight at 4 °C, protein G-Sepharose beads 2 h at 4 °C, immunoblot of coprecipitated proteins; also after siMD2 or negative control siRNA (Fig. 4b, 4c, 4h)

Row | Molecule | binding [1] | binding [2]
1 | Toll-like receptor 4 (from UniProt O00206 24-839) | binds | –
2 | myeloid differentiation primary response gene 88 (from UniProt Q99836 1-296) | – | binds
3 | B1 | binds | binds
4 | B2 | – | binds
